Assay: Background noise of dioxetane stock in buffer, no enzyme (Experiments 1, 4, 5)
[1] = pH 10 AMP buffer, 31.5° C., no enzyme

SMILES: COC1(c2ccc(Cl)c(O[C@]3(C(=O)[O-])C[C@H](O)[C@@H](NC(C)=O)[C@H]([C@H](O)[C@H](O)CO)O3)c2)OOC12C1CC3CC2CC(Cl)(C3)C1.[Na+] (some centres unmarked) [dioxetane 489-102]
- noise (5 microliters dioxetane stock in 250 microliters glaxo pH 5.5 buffer, no enzyme): approximately 0.2 RLU
- noise level relative to pH 5.5 (no enzyme) (pH 7.7): 10 times
- noise after 20 minutes [1]: approximately 1.3 RLU
- noise, maximum value [1]: about 2.3 RLU
- steady noise level (sodium phosphate buffer pH 7.7, 31.5° C., no enzyme): about 2 RLU
